The record followed here is article PMC4392834.

B1: VN-Biniou (protein, UniProt Q9VS05 1-676)
chain: MIKSEEASDRSVMTMDQLGGYYHDPRAHPPFSHPHAHSHPHQHTHTGHPYRAGNLLTGGNYQAMGGGESPTELIDEKPNIGYMELKHYMDATPTATPVSAAQHYSLSALHSMGTPPASSSPIPPYGVLMTAHSAGSASPQSNSKTPTDLPQDLQYASSSTSTAKVQPLQVQLQPLNHQYASTIKYCSNNTILSANDYQLLTSQEQAGQQQPQQLPAQQLQHSPGGGYMSRISTSPSQVISNAHGMPVLNYSSSSSSPAKSLNGSESSPPSQNHLENKVSGSAVVGTGGSSQQDAPSTPDTTKKSGTRRPEKPALSYINMIGHAIKESPTGKLTLSEIYAYLQKSYEFFRGPYVGWKNSVRHNLSLNECFKKLPKGMGVGKPGKGNYWTIDENSAHLFEDEGSLRRRPRGYRSKIKVKPYAGHANGYYASGYGDAGMDNGNYYASPAFASYDYSAAGATGVSPAGGQGFADPWNAHAAHSGSSSVGVGMGVGPLPQYTNISCLAAGGNVNGSATTPPLAHSALGMAPSASSSSSPLGAAATLQSDYAPTASLVAAGYSYATSAGSLDNGLRSISLQQLPGLSSIQHAQAQAQAQAHHHHHQHHASHPSHSHQGHGSMHQNHGTSSTTPPPSQSGGSHGIDHSPIDRKPAYLPPISPPPMMVALNGGGGYYEGLKYAN
B2: VN-Bagpipe (protein, UniProt P22809 1-382)
chain: MLNMESAGVSAAMAGLSKSLTTPFSINDILTRSNPETRRMSSVDSEPEPEKLKPSSDRERSISKSPPLCCRDLGLYKLTQPKEIQPSARQPSNYLQYYAAAMDNNNHHHQATGTSNSSAADYMQRKLAYFGSTLAAPLDMRRCTSNDSDCDSPPPLSSSPSESPLSHDGSGLSRKKRSRAAFSHAQVFELERRFAQQRYLSGPERSEMAKSLRLTETQVKIWFQNRRYKTKRKQIQQHEAALLGASKRVPVQVLVREDGSTTYAHMAAPGAGHGLDPALINIYRHQLQLAYGGLPLPQMQMPFPYFYPQHKVPQPIPPPTQSSSFVTASSASSSPVPIPIPGAVRPQRTPCPSPNGQMMSVESGAESVHSAAEDVDENVEID
B3: VN-Teashirt (protein, UniProt P22265 1-954)
chain: MLHEALMLEIYRQALNAGALPTARPRSTESANSSERCPSHDSNSSEHGGGAGSGGVGHRLDAAALSTGVMPGEGPTTLHSSFPAVPQSLPSQPPSMEAYLHMVAAAAQQYGFPLAAAAAAGAGPRLPLPLANEAAAPFKLPPQASPTASSNNSEALDFRTNLYGRAESAEPPASEGEEEEFDDGANNPLDLSVGTRKRGHESEPQLGHIQVKKMFKSDSPPANSVASPSASQLLPGVNPYLAAVAAANIFRAGQFPDWNSKNDLVVDPLEKMSDIVKGGASGMGTKEKMHSSKATTPQAASQPPKSPVQPTPNQNSESGGGSGGGAAGSGAVTKARHNIWQSHWQNKGVASSVFRCVWCKQSFPTLEALTTHMKDSKHCGVNVPPFGNLPSNNPQPQHHHPTPPPPPQNHNLRKHSSGSASNHSPSANVKNAFQYRGDPPTPLPRKLVRGQNVWLGKGVEQAMQILKCMRCGESFRSLGEMTKHMQETQHYTNILSQEQSISIKSGNANANSDAKESHNSLSSEESRTLSAVLTCKVCDKAFNSLGDLSNHMAKNNHYAEPLLQSAGARKRPAPKKREKSLPVRKLLEMKGGSGTTQEDHSNEKTSVQGKPGLGPGGGDKNDAALFAERMRQYITGVKAPEEIAKVAAAQLLAKNKSPELVEQKNGGSAKAAGASSVLSAIEQMFTTSFDTPPRHASLPASSPSNSSTKNTSPVASSILKRLGIDETVDYNKPLIDTNDPYYQHYRYTSSERSGSECSAEARPRLDAPTPEKQQQGGGHDEESSKPAIKQEREAESKPVKMEIKSEFVDEPNEAEETSKMEAAVVNGSATNNNNNIVERSSPKTPSSAASPQTRLLPPRSPAESQRSVTPKSPASSHKSYDGSSEGTKKFPSDSLNALSSMFDSLGSSGAGANSRAKLAAAAAAGGSESPENLTAGGNSLAALRQFCVKKEKTA

These are yes or no findings as the source states them, for the method shown. Binding seen in cells or lysates may run through a third protein. Binding can be weak; no strength is given.

This experiment addresses HoxE (VC fusion) (Nematostella). The experiment can be described thus: split reporter; Venus BiFC: VC-Hox and VN-TF co-expressed in live Drosophila embryos with the corresponding Hox-Gal4 driver (abdA-Gal4 for AbdA); epidermis, stage 10-12, quantified at stage 10; affected if equal or lower than 50% of wild type, stronger if 120% or more.
In the case of B1, the binding entry is on record as “binds”.
The value for B2 was “no binding”; that for B3 was “binds”.
